Data from PubChem BioAssay AID1347075 (National Center for Advancing Translational Sciences (NCATS), 2019).
About 5,500 (1.4%) of roughly 400,000 compounds were called active. Inconclusive results, whose numbers are uncertain, are shown with a selection of clear calls. Calls come from the whole dose curve; as a rule, active = well fitted cell-killing curve with a large enough effect; inconclusive = small, poorly fitted or top-dose-only effect, or effect the other way; inactive = flat fitted curve, though single readings scatter. Where the call is inconclusive, the potency comes from a doubtful curve fit. More than one record can exist for a structure, and the calls need not agree.

Assay: qHTS assay for MDR1-selective chemotherapeutics: Primary screen using the parental adenocarcinoma cell KB-3-1; note: nearly all actives have a fitted effect of over 60% in size
Details: KB-3-1 viability, CellTiter-Glo ATP luminescence, 72 h; activity change, negative = cytotoxic: at 46.1 µM (top of the series)
Procedure, shortened: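 Screening of KB-3-1 cells (DMEM, 10% FBS, phenol-red free) ran from lowest to highest compound concentration; after 72 h at 37 °C viability was read luminescently and curves fitted.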
% is set by controls: 0 for no effect and ±100 for the full control effect; potency is the fitted concentration of half-maximal effect.

SMILES | Potency | activity change, negative = cytotoxic
CCOC(=O)C(C)(C)Oc1ccc(Cl)cc1 | inconclusive: 1.64 µM [rising, full curve, poor fit] | 
O=C(O)/C=C/C(=O)Nc1ccc(Oc2ncnc3cc(Cl)ccc23)nc1 | inconclusive: 4.11 µM [rising, full curve, poor fit] | 
COc1ccccc1N=Nc1nc(-c2ccccc2)c(-c2ccccc2)[nH]1 | inconclusive: 29.1 µM [cytotoxic, single point] | 
CC1=C(C(=O)N(C(C)C)C(C)C)CC(CC(=O)NC2CCCCC2)C(=O)N1Cc1ccc(C(C)(C)C)cc1 (centres undefined) | inconclusive: 29.1 µM [cytotoxic, single point] | 
CCOc1ccc(C2=Nn3c(nnc3-c3ccccc3OC)SC2)cc1 | active: 0.0116 µM | 
Cc1ccc(S(=O)(=O)NCC(=O)NCc2ccncc2)cc1 |  | inactive: -0.291%
Cc1ccccc1Nc1c(-c2ccncc2)nc2ccc(Br)cn12 | inconclusive: 16.4 µM [cytotoxic, single point] | 
Cc1ccc(-c2nnc3ccc(SCC(N)=O)nn23)cc1 |  | inactive: -10.6%
C(=C\c1ccccc1)/CSc1nc2ncccc2[nH]1 | inconclusive: 0.0461 µM [cytotoxic, full curve] | 
COc1cc(C(=O)N/C(=C/c2ccc(F)cc2)C(=O)NC(C(=O)O)c2ccccc2)cc(OC)c1OC (centres undefined) |  | inactive: 1.85%
Cc1ccc2[nH]c(=O)c(COC(=O)C3CCCO3)cc2c1 (centres undefined) | inconclusive: 20.6 µM [cytotoxic, partial curve] | 
Cc1nc2cc(OCc3cc(C(=O)NC(C)c4cn(C)nc4C)no3)ccc2s1 (centres undefined) | inconclusive: 4.11 µM [cytotoxic, partial curve, poor fit] | 
CC(Sc1nnc(-c2ccncc2)n1-c1ccc(F)cc1)C(=O)NC1CC1 (centres undefined) |  | inactive: 17.4%
Cc1c(C(=O)Nc2nc(-c3ccccn3)cs2)oc2ccccc12 | inconclusive: 9.2 µM [cytotoxic, partial curve, poor fit] | 
CCCCCCC(O)(c1ccc(OC)cc1)C(CN1CCOCC1)c1ccccc1 (centres undefined) | active: 18.4 µM | 
CC(C)Oc1ccccc1C1CC(=O)Nc2cc3c(cc21)OCO3 (centres undefined) | active: 2.59 µM | 
CCn1c(-c2ccc(N(C)C)cc2)nc2ccccc21 | active: 13 µM | 
O=C(CNC(=O)N1CC(=O)Nc2ccccc21)Nc1ccc(Cl)cc1 | inconclusive: 9.2 µM [rising, single point] | 
CSC1=NN(c2ccccc2)CN(c2ccccc2)N1C | inconclusive: 16.4 µM [cytotoxic, single point] | 
CNC(=O)c1[nH]cnc1C(=O)Nc1ccccc1OC | inconclusive: 18.4 µM [cytotoxic, single point] | 
C#CCOCCOCCOCCNc1nc(N2CCN(C(=O)C([C@@H](C)O)n3cc([C@@H](N)CCCCN)nn3)CC2)nc(N2CCN(C(=O)C([C@@H](C)O)n3cc([C@@H](N)CCCCN)nn3)CC2)n1 (some centres undefined) | inconclusive: 29.1 µM [rising, single point] | 
CC(=O)NS(=O)(=O)c1ccc(NC(=O)c2cc3c(=O)n4ccccc4nc3s2)cc1 |  | inactive: -6.93%
Cc1ccc(C)n1-c1ccc(N2CCOCC2)c([N+](=O)[O-])c1 | inconclusive: 10.3 µM [cytotoxic, partial curve, poor fit] | 

SMILES | Potency | activity change, negative = cytotoxic
CCOC(=O)C1CCN(C(=O)Cn2ncc3c4ccccc4n(Cc4ccc(F)cc4)c3c2=O)CC1 |  | inactive: -9.06%
Cc1ccc(S(=O)(=O)c2nc(S(=O)(=O)c3ccccc3)sc2N2CCN(C)CC2)cc1 | inconclusive: 29.1 µM [cytotoxic, single point] | 
CC(=O)N(O)CCCCCNC(=O)CCC(=O)N(O)CCCCCNC(=O)CCC(=O)N(O)CCCCCN | active: 20.6 µM | 
COC(=O)N/N=C/c1cc(Cl)c(OCc2ccc(F)cc2)c(OC)c1 |  | inactive: -1.19%
O=C(Cn1ncc(Cl)c(Cl)c1=O)N1CCN(S(=O)(=O)c2ccc3ccccc3c2)CC1 | active: 16.4 µM | 
CCOc1ccc(NC(=O)c2ccccn2)cc1 | inconclusive: 25.9 µM [cytotoxic, single point] | 
O=C(Cc1ccc(OCc2ccccc2)cc1)NCc1ccc2c(c1)OCO2 |  | inactive: -0.0519%
CCN(CC)CCCNc1ccc(-c2nnc(-c3ccc(OCC(C)C)cc3)o2)cn1 | active: 20.6 µM | 
Cc1ccc(Cl)cc1NC(=S)N1CCC(c2ccccc2)C1 (centres undefined) |  | inconclusive: -58%
Cc1nn(-c2ccccc2)c2nc(-c3ccncc3)cc(C(=O)NCc3ccco3)c12 | inconclusive: 23.1 µM [cytotoxic, single point] | 
Cc1sc(NC(=O)c2ccco2)nc1-c1ccc2c(c1)CC(C)N2C(=O)C1CC1 (centres undefined) | inconclusive: 35.5 µM [cytotoxic, single point] | 
O=C(NCc1ccccc1)C(c1ccccc1)n1c(=O)c(-c2cc3ccccc3[nH]2)nc2ccccc21 (centres undefined) | inconclusive: 29.1 µM [cytotoxic, single point] | 
C[C@H](O)C#Cc1ccc2c(c1)O[C@@H](CN(C)Cc1ccc(-c3ccccc3)cc1)[C@H](C)CN([C@@H](C)CO)S2(=O)=O | inconclusive: 20.6 µM [cytotoxic, single point] | 
CC(C)(C)c1ccc(OCC(=O)NNC(=S)NC(=O)c2ccccc2[N+](=O)[O-])c(Br)c1 | inconclusive: 29.1 µM [cytotoxic, single point] | 
Cc1cc(Nc2nc(Cl)c(Cl)cc2Cl)n(-c2ccccc2)n1 | active: 11.6 µM | 
COc1cc(/C=N/NC(=S)Nc2cccnc2)cc(OC)c1OC |  | inactive: 13.2%
O=C(CCn1c2c(c3ccccc31)CCCC2)NNC(=O)c1ccc([N+](=O)[O-])cc1 |  | inactive: 0.894%
COCCNC(=O)C1CCCN(C(=O)COc2ccc(Cl)cc2Cl)CC1 (centres undefined) |  | inactive: 0%
O=S(=O)(c1cccc2cnccc12)N1CCNCC1 | inconclusive: 29.1 µM [cytotoxic, single point] | 
Cc1ccc(C(=O)N2CC(=O)NC(=O)C2)cc1 |  | inactive: 7.97%
Cc1ccc(CNC(=O)CN(c2cccc(C)c2C)S(=O)(=O)c2ccccc2)cc1 | inconclusive: 29.1 µM [cytotoxic, single point] | 
CC(=O)c1cccc(NC(=O)C2CCCN(C(=O)c3cnn(-c4ccccc4)c3-n3cccc3)C2)c1 (centres undefined) | inconclusive: 29.1 µM [cytotoxic, single point] | 
Cc1[nH]c2ccccc2c1C1=CC(=O)C=CC1=O | inconclusive: 18.4 µM [cytotoxic, single point] | 

SMILES | Potency | activity change, negative = cytotoxic
CCc1cccc(NC(=O)Cn2c(=O)oc3cc(S(=O)(=O)N4CCOCC4)ccc32)c1 | inconclusive: 29.1 µM [cytotoxic, single point] | 
CC(C)NC(=O)C(C)N1CCN(S(=O)(=O)c2ccc3ccccc3c2)CC1 (centres undefined) |  | inactive: -5.82%
Cc1cc(=O)[nH]c(SCC2COC3(CCCCC3)O2)n1 (centres undefined) |  | inactive: -2.97%
COc1ccc(OC(C)C(=O)N2CCc3ccccc3C2)cc1 (centres undefined) | inconclusive: 18.4 µM [cytotoxic, single point] | 
CN1C(=O)S/C(=C/c2ccccc2OCc2ccc(C(=O)O)cc2)C1=O |  | inactive: 12.1%
NC(=O)c1ccccc1NC(=O)CN1CCN(Cc2ccc(Cl)cc2Cl)CC1 | inconclusive: 14.6 µM [cytotoxic, single point] | 
O=C(C[C@H]1C[C@H](C(=O)N2CCCCC2)[C@@]2(CCc3ccccc3)c3[nH]c4cc(-c5ccco5)ccc4c3CCN2C1=O)NCCC1=CCCCC1 |  | inactive: -6.84%
COc1cc(NC(=O)C(Cc2ccccc2)NS(=O)(=O)c2cccc3nsnc23)cc(OC)c1 (centres undefined) | inconclusive: 0.259 µM [cytotoxic, full curve] | 
COC(=O)[C@@]1(Cc2ccc(F)cc2)[C@H]2c3cc(C(=O)N(C)C)n(Cc4ccsc4Br)c3C[C@H]2CN1C(=O)c1ccccc1 | inconclusive: 29.1 µM [cytotoxic, single point] | 
CCC(Oc1ccccc1)C(=O)Nc1ccccc1C(=O)N1CCN(C)CC1 (centres undefined) |  | inactive: -0.0926%
C=CCOc1ccc(C2C(C#N)=C(N)N(Nc3ccccc3)C3=C2C(=O)CCC3)cc1OC (centres undefined) | inconclusive: 29.1 µM [cytotoxic, single point] | 
CC1(C)C(N(O)C(=O)Nc2ccc(Cl)cc2)N(c2ccc(Cl)cc2)C(=O)N1CC(=O)NN (centres undefined) |  | inactive: 0.454%
O=c1[nH]c(CN2CCN(c3ccccc3O)CC2)nc2scc(-c3ccccc3Cl)c12 | inconclusive: 29.1 µM [cytotoxic, single point] | 
CN(C)/C=N/S(=O)(=O)c1cccn1-c1ncc(C(F)(F)F)cc1Cl |  | inactive: 1.3%
COc1ccc(C(CCN2CCCC(C)C2)c2c(OC)cc(OC)c3c(-c4ccccc4)cc(=O)oc23)cc1 (centres undefined) | inconclusive: 20.6 µM [cytotoxic, single point] | 
CCCCNc1nc(Oc2ccc(=O)n(C)n2)nc(N2CCOCC2)n1 |  | inactive: -8.45%
Cc1nnc(NC(=O)C2CCN(C(=O)c3ccsc3)CC2)s1 |  | inactive: 7.1%
CC(C)=CCOc1ccc([C@@H]2COc3c(ccc4c3C=CC(C)(C)O4)C2)c(O)c1 | inconclusive: 29.1 µM [cytotoxic, single point] | 
O=C(Nc1ccc(N2CCOCC2)c(S(=O)(=O)Nc2ccccc2Cl)c1)c1ccc(F)cc1 | inconclusive: 23.1 µM [cytotoxic, single point] | 
CC(=O)/C(C#N)=C1\NC(=O)C(Cc2ccc(C)c(Cl)c2)S1 (centres undefined) | active: 18.4 µM | 
CC(=O)c1cccc(NC(=O)CCc2c(C)nc3c(c(C)nn3-c3ccccc3)c2C)c1 |  | inactive: 2.61%
COc1ccc(S(=O)(=O)NCCc2cn3nc(C)c(C)nc3n2)cc1F | inconclusive: 20.6 µM [cytotoxic, partial curve, poor fit] | 
CCOc1ccc(-c2cc3c(=O)n(CC(=O)Nc4cc(F)ccc4C)ccn3n2)cc1 |  | inactive: -3.41%

A section of the results above:
SMILES | Potency | activity change, negative = cytotoxic
COc1ccc(C(CCN2CCCC(C)C2)c2c(OC)cc(OC)c3c(-c4ccccc4)cc(=O)oc23)cc1 (centres undefined) | inconclusive: 20.6 µM [cytotoxic, single point] | 
CCCCNc1nc(Oc2ccc(=O)n(C)n2)nc(N2CCOCC2)n1 |  | inactive: -8.45%
Cc1nnc(NC(=O)C2CCN(C(=O)c3ccsc3)CC2)s1 |  | inactive: 7.1%
CC(C)=CCOc1ccc([C@@H]2COc3c(ccc4c3C=CC(C)(C)O4)C2)c(O)c1 | inconclusive: 29.1 µM [cytotoxic, single point] | 
